Results as given in PubChem BioAssay AID493014 (National Center for Advancing Translational Sciences (NCATS), 2011).
Some of the results follow. These are further read-outs of the screen, such as a control signal, another cell line or another target. No call is given for them. The list favours compounds with an active or inconclusive main result. The note in brackets gives the kind of curve behind each potency; many fits are weak.

Assay: qHTS Assay to Find Inhibitors of Chronic Active B-Cell Receptor Signaling
Settings: ABC-DLBCL IkBa-CBG/CBR reporter, luminescence ratio (green luciferase fused to IkBa over red control in TMD8 lymphoma cells), 4 h
Procedure, shortened: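 Doxycycline induced both beetle luciferases in TMD8 lymphoma cells; IKK-driven degradation limits the IkappaBalpha-fused green signal, while red luminescence normalises for cell number and nonspecific effects. Compounds tested up to 46 uM, 4 hrs.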

[1] = measured here: CBR red luminescence, cell number
[2] = measured here: IkBa-CBG green luminescence

SMILES	AC50 [1]	AC50 [2]
O=C(Nc1ccccc1C(=O)NCCN1CCOCC1)c1ccco1	1.64 µM [rising, partial curve, poor fit]	–
Cc1nc(-c2ccccc2)nc2sc(C(=O)c3ccc(F)cc3)c(N)c12	3.98 µM [rising, partial curve, poor fit]	–
CC(=O)COc1ccc2c3c(c(=O)oc2c1C)CCCCC3	5.8 µM [rising, partial curve, poor fit]	–
COc1ccccc1C(=O)N/N=C(\C)CC(=O)Nc1ccc2c(c1)OCCO2	2 µM [falling, full curve]	–
O=C(CSc1ccnc(=O)[nH]1)NCc1ccc(F)cc1	0.794 µM [falling, full curve, poor fit]	–
O=C(O)c1ccccc1NS(=O)(=O)c1cccc(C(F)(F)F)c1	23.1 µM [rising, single point]	–
COc1cccc(-c2cc3c(-n4cccc4)ncnc3o2)c1	10 µM [falling, partial curve]	–
O=C(Cc1coc(-c2ccc(F)cc2)n1)NCc1ccccc1	0.651 µM [rising, partial curve, poor fit]	–
CN1CCN(C2=CC3=CC(=C(C#N)C#N)CCC3CC2)CC1 (stereo unspecified)	0.282 µM [falling, full curve, poor fit]	–
O=C(CCc1nc2ccccc2[nH]1)Nc1ccccc1F	12.6 µM [falling, partial curve]	–
CC1(c2ccccc2)NC(=O)N(CC(=O)N2CC(=O)Nc3ccccc32)C1=O (stereo unspecified)	14.6 µM [rising, single point]	–
CN(C(=O)Nc1ccc(Cl)cc1Cl)[C@H]1c2cc(Br)ccc2OC[C@H]1CO	23.1 µM [falling, single point]	–
Cc1ccc(C)n1NC(=O)c1ccc(O)cc1	8.2 µM [falling, partial curve, poor fit]	–
O=C1NC(Cc2ccccc2)c2nc3ccc(Cl)cc3c(=O)n2-c2ccc(Cl)cc21 (stereo unspecified)	4.61 µM [falling, partial curve]	–
O=C(NCc1ccc(Cl)cc1)c1cc(=O)nc2sc(-c3ccccc3)nn12	29.1 µM [falling, single point]	–
CCCCCNC(=O)c1ccc2c(=O)n(CC3CCCO3)c(=O)[nH]c2c1 (stereo unspecified)	–	12.6 µM [rising, partial curve, poor fit]
COc1cccc(NC(=O)C(NCC2CCCCC2)c2ccccc2)c1 (stereo unspecified)	32.6 µM [falling, single point]	29.1 µM [rising, partial curve, poor fit]
O=C(COc1ccccc1[N+](=O)[O-])Nc1ccc(NC(=O)c2cc3ccccc3o2)cc1	0.631 µM [rising, full curve, poor fit]	–
CCOC(=O)c1cc(-c2ccc(OC)cc2OC)nn1-c1ccc(C(=O)O)cc1	11.2 µM [falling, partial curve]	–
COC(=O)c1c(NC(=O)CCl)sc(C(=O)N2CCOCC2)c1C	20 µM [falling, single point]	–
Cc1cccc(-n2c(O)c(C=Nc3ccccc3)c3ccccc3c2=O)n1	0.891 µM [rising, full curve, poor fit]	–
Cc1ccc(S(=O)(=O)Nn2c(O)c(C=C3N=c4ccccc4=N3)sc2=S)cc1	10 µM [falling, partial curve]	–

SMILES	AC50 [1]	AC50 [2]
O=[N+]([O-])c1ccc(NC2CCCC2)cc1	7.31 µM [rising, partial curve, poor fit]	–
C=CCn1c(N)c(C(=O)OCC(C)C)c2nc3ccccc3nc21	15.8 µM [falling, single point]	–
C=CCNC(=O)c1cc(Cl)cc(Cl)c1	25.1 µM [rising, single point]	–
COCCN1C(=O)c2ccc(C(=O)Nc3nccs3)cc2C1=O	3.16 µM [falling, full curve]	–
CCOc1cc(C(=S)N2CCOCC2)ccc1OC(=O)c1cc(OC)c(OC)c(OC)c1	35.5 µM [rising, single point]	–
COc1ccc(-n2ncc3c(NC(C)C)ncnc32)cc1	11.2 µM [falling, single point]	–
Cc1ccc(CN2CCC(n3nccc3NC(=O)CCCc3ccccc3)CC2)o1	1.78 µM [rising, partial curve, poor fit]	–
CN(CC(=O)Nc1ccc(Cl)cc1)C(=O)c1ccc(COc2ccccc2)cc1	29.1 µM [rising, single point]	32.6 µM [falling, partial curve, poor fit]
Cc1cc(Oc2ccc(N)cn2)ccc1Cl	35.5 µM [rising, single point]	–
Cc1cc(C)nc(N/N=C/c2ccccc2OCc2ccccc2)n1	13 µM [falling, partial curve, poor fit]	–
c1ccc(-c2cc(N3CCCCC3)ncn2)cc1	1.16 µM [rising, full curve, poor fit]	–
CNC(=O)c1cc2ccc(OC)cc2oc1=O	6.51 µM [rising, single point]	–
COc1cccc(C(=O)Nc2ccc3nc(N4CCOCC4)cc(C)c3c2)c1	6.51 µM [falling, partial curve]	–
CCN(CC)S(=O)(=O)c1nnc(NC(=O)c2ccco2)s1	0.355 µM [rising, partial curve, poor fit]	–
CCOC(=O)CN1C(=O)C(C)(C)Oc2ccc(C(=O)Nc3ccccc3OC)cc21	3.66 µM [rising, full curve]	–
Cn1cccc1C(=O)OCc1ccc(C(C)(C)C)cc1	12.6 µM [rising, partial curve, poor fit]	–
Cc1ccc(S(=O)(=O)NCC(=O)N(CC(=O)NCc2ccccc2)CC2CCCO2)cc1 (stereo unspecified)	0.92 µM [falling, full curve, poor fit]	–
N#Cc1cccc(NC(=O)CCNC(=O)c2ccccc2Cl)c1	35.5 µM [rising, partial curve, poor fit]	–
Cc1ccc(-c2nnc(CCC(=O)N(C)Cc3nccs3)o2)s1	8.91 µM [rising, partial curve, poor fit]	–
Cc1sc(/N=C/c2ccccc2O)c(C#N)c1C	0.82 µM [falling, full curve, poor fit]	–
CCOc1cccc2cc(-c3csc(NC(=O)CCC(=O)N4CCC(C)CC4)n3)c(=O)oc12	0.164 µM [rising, full curve, poor fit]	–
CCCCn1c(SCC(=O)c2cc(OC)ccc2OC)nc2cc(S(N)(=O)=O)ccc21	–	11.2 µM [falling, partial curve]

SMILES	AC50 [1]	AC50 [2]
Cc1cccc(OCCn2c(=S)[nH]c3ccccc32)c1	18.4 µM [rising, partial curve, poor fit]	–
CC(C)=NOCC(=O)Nn1c(COc2ccccc2)nc2ccccc2c1=O	22.4 µM [falling, partial curve]	–
COc1ccccc1C(=O)O/N=C(\N)c1ccc(Cl)cc1	10 µM [falling, partial curve]	–
CC(C)CCn1c(=O)c2ccccc2n2c(CCl)nnc12	11.2 µM [falling, partial curve]	–
CCOC(=O)C1(CC2CCCCO2)CCN(S(=O)(=O)c2ccc(OC)cc2)CC1 (stereo unspecified)	3.16 µM [falling, single point]	–
CCCCNC(=O)C1CCN(C(=O)Nc2ccc(C)cc2)CC1	2.59 µM [rising, full curve, poor fit]	–
CCOC(=O)/C(C#N)=C\c1ccc(CC)s1	3.98 µM [rising, full curve, poor fit]	–
COc1ccccc1C(CNC(=O)C1CCN(C(=O)Nc2ccccc2)CC1)N1CCCC1 (stereo unspecified)	7.31 µM [rising, partial curve]	–
CN(C(=S)NC(=O)c1ccc(F)cc1)C1CCCCC1	0.794 µM [rising, full curve, poor fit]	–
CCOc1ccc(NC(=O)C(C)NS(=O)(=O)c2ccc(NC(C)=O)cc2)cc1 (stereo unspecified)	3.55 µM [rising, partial curve, poor fit]	–
O=C(CNCc1ccco1)Nc1cc(S(=O)(=O)N2CCOCC2)ccc1N1CCOCC1	6.51 µM [rising, single point]	–
CCOC(=O)c1ccc2ncc(C(=O)OCC)c(NCCCN3CCOCC3)c2c1	17.8 µM [falling, single point]	–
Cc1ccc(C(=O)N(CC(=O)Nc2sc(C)c(C)c2C(N)=O)C2CCCC2)cc1	5.62 µM [falling, full curve, poor fit]	–
Cc1cc(Cl)ccc1NC(=S)NCc1ccccc1Cl	2.31 µM [rising, partial curve, poor fit]	–
Cc1ccc(C(=O)NCC(=O)OCC(=O)NCCNC(=O)COC(=O)CNC(=O)c2ccc(C)cc2)cc1	23.1 µM [rising, single point]	–
CCN(CC)CCCNC(=O)c1sc2nc(-c3ccc(F)cc3)cn2c1C	–	2.91 µM [rising, full curve, poor fit]
O=C(NCC1OCCc2ccccc21)c1ccc(NC(=O)c2ccccc2Cl)cc1 (stereo unspecified)	18.4 µM [falling, partial curve, poor fit]	–
O=C(O)CCC(=O)NCc1ccc(F)cc1	29.1 µM [rising, single point]	–
O=C(NCC(c1ccco1)N1CCc2ccccc21)c1ccc([N+](=O)[O-])cc1 (stereo unspecified)	29.1 µM [falling, single point]	–
COC(=O)c1ccc(CSc2ccc3nnc(-c4ccc(F)cc4)n3n2)o1	2.51 µM [falling, full curve, poor fit]	–

Given as labelled records: part of the list above
O=C(O)c1ccccc1NS(=O)(=O)c1cccc(C(F)(F)F)c1
  AC50 [1]: 23.1 µM [rising, single point]
CCOc1ccc(NC(=O)C(C)NS(=O)(=O)c2ccc(NC(C)=O)cc2)cc1 (stereo unspecified)
  AC50 [1]: 3.55 µM [rising, partial curve, poor fit]
Cc1ccc(C(=O)NCC(=O)OCC(=O)NCCNC(=O)COC(=O)CNC(=O)c2ccc(C)cc2)cc1
  AC50 [1]: 23.1 µM [rising, single point]
O=C(NCC1OCCc2ccccc21)c1ccc(NC(=O)c2ccccc2Cl)cc1 (stereo unspecified)
  AC50 [1]: 18.4 µM [falling, partial curve, poor fit]
